Results taken from article PMC8447601.

The chains behind the UniProt entries cited, without tags or fusion partners. Residues count along the entry.
UniProt Q9FLP6: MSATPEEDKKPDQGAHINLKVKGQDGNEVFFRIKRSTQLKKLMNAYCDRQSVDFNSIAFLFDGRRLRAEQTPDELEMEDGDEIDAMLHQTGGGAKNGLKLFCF
UniProt Q39043, residues 24-668: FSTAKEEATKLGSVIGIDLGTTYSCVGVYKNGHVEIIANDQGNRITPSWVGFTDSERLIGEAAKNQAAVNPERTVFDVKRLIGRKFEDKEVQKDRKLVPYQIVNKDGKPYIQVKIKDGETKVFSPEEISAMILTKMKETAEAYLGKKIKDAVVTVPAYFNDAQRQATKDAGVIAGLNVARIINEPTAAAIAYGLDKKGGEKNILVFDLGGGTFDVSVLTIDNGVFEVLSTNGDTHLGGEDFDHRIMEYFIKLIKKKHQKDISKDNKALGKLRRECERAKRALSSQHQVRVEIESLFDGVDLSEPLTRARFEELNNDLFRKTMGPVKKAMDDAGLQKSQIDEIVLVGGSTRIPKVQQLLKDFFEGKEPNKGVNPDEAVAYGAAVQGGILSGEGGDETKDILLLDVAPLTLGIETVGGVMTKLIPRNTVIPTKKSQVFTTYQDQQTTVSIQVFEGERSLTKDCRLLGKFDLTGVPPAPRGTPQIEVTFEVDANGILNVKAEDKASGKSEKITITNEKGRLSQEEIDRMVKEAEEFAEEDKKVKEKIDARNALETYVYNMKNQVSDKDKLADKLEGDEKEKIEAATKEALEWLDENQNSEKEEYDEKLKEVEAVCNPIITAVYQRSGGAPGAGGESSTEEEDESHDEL
UniProt P55852: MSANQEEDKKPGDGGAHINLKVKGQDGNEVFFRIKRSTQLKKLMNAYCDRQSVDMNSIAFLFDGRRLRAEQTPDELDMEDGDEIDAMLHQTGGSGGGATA
UniProt P18616: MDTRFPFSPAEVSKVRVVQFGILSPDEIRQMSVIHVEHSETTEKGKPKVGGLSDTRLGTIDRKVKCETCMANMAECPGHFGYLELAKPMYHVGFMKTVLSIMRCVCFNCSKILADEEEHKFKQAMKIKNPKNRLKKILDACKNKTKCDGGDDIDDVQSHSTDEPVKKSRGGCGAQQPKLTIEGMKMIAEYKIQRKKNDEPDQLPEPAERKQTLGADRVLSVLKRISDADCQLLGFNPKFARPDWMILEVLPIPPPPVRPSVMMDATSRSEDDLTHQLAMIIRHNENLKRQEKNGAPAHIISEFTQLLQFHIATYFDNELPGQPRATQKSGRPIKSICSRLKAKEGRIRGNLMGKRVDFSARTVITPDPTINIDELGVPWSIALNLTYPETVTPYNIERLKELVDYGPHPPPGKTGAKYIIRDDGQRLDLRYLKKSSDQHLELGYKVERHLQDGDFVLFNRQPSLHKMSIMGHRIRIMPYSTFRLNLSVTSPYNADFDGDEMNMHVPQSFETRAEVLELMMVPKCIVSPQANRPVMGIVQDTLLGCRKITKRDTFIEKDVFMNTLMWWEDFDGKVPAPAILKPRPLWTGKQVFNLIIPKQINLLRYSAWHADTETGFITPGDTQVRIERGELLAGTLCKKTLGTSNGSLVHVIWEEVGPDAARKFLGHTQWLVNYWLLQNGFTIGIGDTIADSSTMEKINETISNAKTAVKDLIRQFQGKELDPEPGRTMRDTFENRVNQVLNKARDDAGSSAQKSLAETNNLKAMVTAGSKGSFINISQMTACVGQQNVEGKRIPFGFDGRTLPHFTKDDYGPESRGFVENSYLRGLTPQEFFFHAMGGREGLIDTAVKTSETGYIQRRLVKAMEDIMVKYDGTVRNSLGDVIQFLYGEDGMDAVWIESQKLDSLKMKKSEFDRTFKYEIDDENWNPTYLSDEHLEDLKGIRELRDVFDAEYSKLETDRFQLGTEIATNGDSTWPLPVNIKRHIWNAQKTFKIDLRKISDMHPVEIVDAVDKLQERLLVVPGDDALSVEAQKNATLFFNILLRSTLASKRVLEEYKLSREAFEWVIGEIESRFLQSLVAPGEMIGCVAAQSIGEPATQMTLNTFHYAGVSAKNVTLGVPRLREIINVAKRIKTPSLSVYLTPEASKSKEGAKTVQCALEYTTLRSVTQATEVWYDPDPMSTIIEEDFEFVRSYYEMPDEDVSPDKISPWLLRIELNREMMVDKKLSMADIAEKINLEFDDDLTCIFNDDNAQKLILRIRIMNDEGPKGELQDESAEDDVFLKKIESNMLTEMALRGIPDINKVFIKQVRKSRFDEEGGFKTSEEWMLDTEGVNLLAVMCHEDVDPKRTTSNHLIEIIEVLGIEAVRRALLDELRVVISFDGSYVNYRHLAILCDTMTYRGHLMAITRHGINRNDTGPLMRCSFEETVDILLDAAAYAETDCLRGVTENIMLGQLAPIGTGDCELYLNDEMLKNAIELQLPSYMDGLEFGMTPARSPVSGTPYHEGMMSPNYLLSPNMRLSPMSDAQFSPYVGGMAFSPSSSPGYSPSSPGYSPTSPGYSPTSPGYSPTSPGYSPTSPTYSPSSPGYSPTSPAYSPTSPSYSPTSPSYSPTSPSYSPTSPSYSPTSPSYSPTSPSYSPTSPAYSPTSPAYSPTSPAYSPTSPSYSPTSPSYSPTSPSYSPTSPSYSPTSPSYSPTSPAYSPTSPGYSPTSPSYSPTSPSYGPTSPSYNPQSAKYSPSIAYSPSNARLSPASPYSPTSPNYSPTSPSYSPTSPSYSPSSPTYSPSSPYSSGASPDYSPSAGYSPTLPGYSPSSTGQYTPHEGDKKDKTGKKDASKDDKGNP

T1: Tudor staphylococcal nuclease 2 with C-terminal TAPa tag (TSN2‐TAPa) (Arabidopsis thaliana) (UniProt Q9FLT0)
T1 sequence: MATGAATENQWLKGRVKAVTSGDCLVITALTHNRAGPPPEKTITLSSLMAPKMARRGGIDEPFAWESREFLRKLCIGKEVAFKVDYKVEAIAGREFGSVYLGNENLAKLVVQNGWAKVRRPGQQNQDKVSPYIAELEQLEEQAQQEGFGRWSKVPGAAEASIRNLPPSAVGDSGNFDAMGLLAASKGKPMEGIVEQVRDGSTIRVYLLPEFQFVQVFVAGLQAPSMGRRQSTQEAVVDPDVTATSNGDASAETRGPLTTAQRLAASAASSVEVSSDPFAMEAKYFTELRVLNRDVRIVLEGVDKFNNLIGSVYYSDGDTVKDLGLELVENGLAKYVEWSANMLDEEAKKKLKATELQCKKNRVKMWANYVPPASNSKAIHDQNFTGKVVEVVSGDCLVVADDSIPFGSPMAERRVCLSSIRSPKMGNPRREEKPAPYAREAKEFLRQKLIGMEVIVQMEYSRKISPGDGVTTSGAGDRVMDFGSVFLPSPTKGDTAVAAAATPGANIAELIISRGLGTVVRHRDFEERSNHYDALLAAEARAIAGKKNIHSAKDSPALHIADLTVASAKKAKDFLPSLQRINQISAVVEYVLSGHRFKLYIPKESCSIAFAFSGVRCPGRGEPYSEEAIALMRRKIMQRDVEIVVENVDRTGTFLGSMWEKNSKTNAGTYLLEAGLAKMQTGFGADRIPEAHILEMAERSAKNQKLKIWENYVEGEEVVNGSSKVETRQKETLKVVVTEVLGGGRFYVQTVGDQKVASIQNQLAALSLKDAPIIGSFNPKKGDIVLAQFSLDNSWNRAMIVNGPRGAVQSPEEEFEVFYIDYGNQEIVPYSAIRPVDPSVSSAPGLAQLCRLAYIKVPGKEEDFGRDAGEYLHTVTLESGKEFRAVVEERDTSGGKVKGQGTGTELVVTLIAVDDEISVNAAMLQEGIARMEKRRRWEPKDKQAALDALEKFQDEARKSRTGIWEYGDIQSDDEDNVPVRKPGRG


How the values were obtained:
[1] = target: T1, Tudor staphylococcal nuclease 2 with C-terminal TAPa tag (TSN2‐TAPa) (Arabidopsis thaliana); experiment: affinity purification with mass spectrometry; TAPa: TSN2-TAPa or TSN1-TAPa as bait from leaves of 18-day-old Arabidopsis; IgG beads, 3C protease elution, Ni-NTA; 50 mM Tris-HCl pH 7.5, 150 mM NaCl, 10% glycerol, 0.1% Nonidet P-40, 4°C; label-free LC-MS/MS (iBAQ), enrichment against GFP-TAPa; plants at 23°C (NS), 39°C for 60 min (HS) or 200 mM NaCl for 5 h
[2] = target: T1, Tudor staphylococcal nuclease 2 with C-terminal TAPa tag (TSN2‐TAPa) (Arabidopsis thaliana); experiment: affinity purification with mass spectrometry; TAPa with TSN2-TAPa as in a1, plants without stress (23°C): TSN2_NS pool

Molecule | binding [1] | binding [2]
MCA‐Ia | binds | –
SUMO2 (from UniProt Q9FLP6 1-103) | binds | –
eIF4E5 | binds | –
HSP70 | binds | –
eEF1Bγ (subunit of eEF1 elongation factor) | binds | no binding (only without stress (23°C))
SKP1 | binds | –
eEF1B (subunit of eEF1 elongation factor) | binds | no binding (only without stress (23°C))
BIP2 (from UniProt Q39043 24-668) | binds | –

Continued, values first:

binding [1] | binding [2] | Molecule
binds | – | RNA‐binding protein 47 (RBP47)
binds | – | SUMO1 (from UniProt P55852 1-100)
binds | no binding (only without stress (23°C)) | NRPB1 (DNA‐directed RNA polymerase II subunit) (from UniProt P18616 1-1839)
binds | – | RENT1 (protein, UniProt Q9FJR0 1-1254) MDSQQSDLFDTASQPDTVADEYTFLEFNTQGDSEFDYQDFGSPTAWPTPSDSISIADVADRGEGGAAADHHSEASSPSSLSAGAGNGAKVGRGGVGGSGGVSSSSQVDALAAGVGNLNFEETGDDDGFDYGKNDFTEHACKYCGISNPACVVRCNVASCRKWFCNSRGNTSGSHIVNHLVRAKHKEVCLHRDSPLGETILECYNCGCRNVFLLGFISAKTDSVVVLLCRDPCLNVNALKDMNWDLSQWCPLIDDRCFLPWLVKVPSEQEQLRARQISAQQINKIEELWKTNPDATLEDLEKPGVDDEPQPVQPKYEDAYQYQNVFAPLIKLEADYDKMMKESQSKENLTVRWDIGLNKKRVAYFVFPKEENELRLVPGDELRLRYSGDAVHPSWQSVGHVIKLTAQEEVALELRANQGVPIDVNHGFSVDFVWKSTSFDRMQGAMKNFAVDETSVSGYIYHQLLGHEVEAQMVRNTLPRRFGVPGLPELNASQVNAVKSVLQKPISLIQGPPGTGKTVTSAAIVYHMAKQGQGQVLVCAPSNVAVDQLAEKISATGLKVVRLCAKSREAVSSPVEYLTLHYQVRHLDTSEKSELHKLQQLKDEQGELSSSDEKKYKNLKRATEREITQSADVICCTCVGAADLRLSNFRFRQVLIDESTQATEPECLIPLVLGVKQVVLVGDHCQLGPVIMCKKAARAGLAQSLFERLVTLGIKPIRLQVQYRMHPALSEFPSNSFYEGTLQNGVTIIERQTTGIDFPWPVPNRPMFFYVQLGQEEISASGTSYLNRTEAANVEKLVTAFLKSGVVPSQIGVITPYEGQRAYIVNYMARNGSLRQQLYKEIEVASVDSFQGREKDYIILSCVRSNEHQGIGFLNDPRRLNVALTRARYGIVILGNPKVLSKQPLWNGLLTHYKEHECLVEGPLNNLKQSMVQFQKPRKIYNDRRLFYGGGAGMIGNDNFGSGNPNADRRGSRGRAGGSYLPSGPPNGARPGLHPAGYPIPRVPLSPFPGGPPSQPYAIPTRGPVGAVPHAPQPGNHGFGAGRGTSVGGHLPHQQATQHNVGTIGPSLNFPLDSPNSQPSPGGPLSQPGYGSQAFRDGFSMGGISQDFLADDIKSQGSHDPYNMADFATQASPGGFAVDYATQGAHGAFPGNFMNQNSQGGYSRFSGINDFMSQEYMAHGGQGLFTQAGFIDSSQDDGQQNPYGVNNPNLQSQGLPNSLYSQPFAHYNTQPLNLSGPQQSQPNQSSQNPKHPYNG
binds | – | SnRK1α1 (α‐catalytic subunit of SNF1‐related protein kinase 1) (protein, UniProt Q38997 1-512) MDGSGTGSRSGVESILPNYKLGRTLGIGSFGRVKIAEHALTGHKVAIKILNRRKIKNMEMEEKVRREIKILRLFMHPHIIRLYEVIETPTDIYLVMEYVNSGELFDYIVEKGRLQEDEARNFFQQIISGVEYCHRNMVVHRDLKPENLLLDSKCNVKIADFGLSNIMRDGHFLKTSCGSPNYAAPEVISGKLYAGPEVDVWSCGVILYALLCGTLPFDDENIPNLFKKIKGGIYTLPSHLSPGARDLIPRMLVVDPMKRVTIPEIRQHPWFQAHLPRYLAVPPPDTVQQAKKIDEEILQEVINMGFDRNHLIESLRNRTQNDGTVTYYLILDNRFRASSGYLGAEFQETMEGTPRMHPAESVASPVSHRLPGLMEYQGVGLRSQYPVERKWALGLQSRAHPREIMTEVLKALQDLNVCWKKIGHYNMKCRWVPNSSADGMLSNSMHDNNYFGDESSIIENEAAVKSPNVVKFEIQLYKTRDDKYLLDLQRVQGPQFLFLDLCAAFLAQLRVL
binds | no binding (only without stress (23°C)) | HEN4 (protein, UniProt F4KDN0 1-857) MERNSVKFHAEKRSGAFDPGSGFGSSKRVKTHHTQLLSALVVPVGHAAFRLLCPLSHVGAVIGKSGNVIKQLQQSTGAKIRVEEPPSGSPDRVITIIAQADSKSRVKLGANNNGNAEGEKKEEEVEVSKAQGALIKVFELLAAEADSDTVVCRLLTESSHAGAVIGKGGQMVGSIRKETGCKISIRIENLPICADTDDEMVEVEGNAIAVKKALVSISRCLQNCQSIDKVRMVGNRPLEKEFQASLHRPIETIIQESLPRSVEVNPYDYRLRNDEIFPRGTVARANDVIPHDTLHLRRIEAVPQGALRMHIEADRQDVLRRHVEADRQDALRRRIDVVPQETLYMPSDVLRGDCFRQHRERDDSHDSLHRPFEMVPRDAMGMPFESFPRDAYGRPIETMTQETLRGQSADYLAHRYSTLDTHPHSFTTSASMANTATMKPPPSEVEVGNQDVVFKILCSTENAGGVIGTGGKVVRMLHSETGAFINVGNTLDDCEERLIAVTASENPECQSSPAQKAIMLIFSRLFELATNKILDNGPRSSITARLVVPTSQIGCVLGKGGVIVSEMRKTTGAAIQILKVEQNPKCISENDQVVQITGEFPNVREAIFHITSRLRDSVFSNSMKNSLAKSSSALTTERFYDRQSDNPLSIGSHQSVSNPATNSSSLHRRSEDSFLSGSHSSVNYSRSVGTDPYIRPEDPFPDRFNPSAGYSHNFGRRFTMDHSDNSHHLTEAPSRLWASPPPAAPRGLSDASGGLSSARAGHVLGSGHKSAIVTNTTVEIRVPANAMSFVYGEQGYNLEQLRQISGARVIIHEPPLGTSDRIIVISGTPDQTQAAQNLLHAFILTGETSLSKKYNLN
binds | no binding (only without stress (23°C)) | BRN1 (protein, UniProt Q8LFS6 1-441) MAEAKEENREKNEEEESVKLFVGQIPKHMSESQLLTLFQEFAVVDEVNIIKDKITRASRGCCFLLCPSREEADKLVNACHNKKTLPGANSLLQVKYADGELERLEHKLFVGMLPKNVSEAEVQSLFSKYGTIKDLQILRGAQQTSKGCAFLKYETKEQAVSAMESINGKHKMEGSTVPLVVKWADTERERHTRRLQKAQSHIARLGNGDPTNPSLFGALPMGYVPPYNGYGYHQPPGTYGYMLPPIQNQAAFSNMIAQPNQGNNNALQGTSPDSVPPRLARRNFPMPPGNYMGSGYPAMRGHPFPFAYPRGIVSPRPLSSSPGSISPGMSTPLGIGLSSVVQTEGPEGANLFIYNIPREFGDQELAAAFQSFGIVLSAKVFVDKATGVSKCFGFVSYDSQAAAQNAIDMMNGRHLGGKKLKVQLKRDSNNGQPSSNPSLIS

Results are given in words; binding and its absence hold for the method and conditions named. In cells and extracts the contact can be indirect. Here binding means that the protein was enriched with, or labelled near, the bait; the list need not be complete. For some assays here: A no says only that the protein was not detected with the bait. Sequences can lack the tags named with a protein.
